At least one compound was matched to its structure with a doubt left.
Experiments:
rat glioblastoma (C6) = experiment: cell viability, glioma C6; assay type: cell-based; details: 10 μM-100 μM, FIG. 3A
Prostate LN-Cap cells = experiment: sensitization to doxorubicin, prostate LN-Cap cells; assay type: cell-based, human; details: clozapine 20 μM with doxorubicin 1 μM, simultaneously; FIG. 6A
glioma C6 cells = experiment: sensitization to doxorubicin, glioma C6 cells; assay type: cell-based, rat; details: FIG. 6G

CN1CCN(C2=Nc3cc(Cl)ccc3Nc3ccccc32)CC1 [Clozapine]
cell viability, C6 glioma (in words) (rat glioblastoma (C6)): significantly reduced
toxicity of doxorubicin in combination (in words) (Prostate LN-Cap cells): potentiated the toxicity
induction of doxorubicin toxicity (in words) (glioma C6 cells): induce toxicity of doxorubicin

— patent US20040029860A1, “Anti-proliferative drugs” (priority 2000, published 2004)
